In PMC9281110:
These are yes or no findings as the source states them, for the method shown. In cells and extracts the contact can be indirect. Some results given as binding are weak or reduced against the parent protein; the word gives no strength. Where a sequence is shown, tags or fusion partners need not be part of it. One block for each binder: values may come before it.

Chains of the proteins cited; added tags and fusions are not shown.
UniProt P28290: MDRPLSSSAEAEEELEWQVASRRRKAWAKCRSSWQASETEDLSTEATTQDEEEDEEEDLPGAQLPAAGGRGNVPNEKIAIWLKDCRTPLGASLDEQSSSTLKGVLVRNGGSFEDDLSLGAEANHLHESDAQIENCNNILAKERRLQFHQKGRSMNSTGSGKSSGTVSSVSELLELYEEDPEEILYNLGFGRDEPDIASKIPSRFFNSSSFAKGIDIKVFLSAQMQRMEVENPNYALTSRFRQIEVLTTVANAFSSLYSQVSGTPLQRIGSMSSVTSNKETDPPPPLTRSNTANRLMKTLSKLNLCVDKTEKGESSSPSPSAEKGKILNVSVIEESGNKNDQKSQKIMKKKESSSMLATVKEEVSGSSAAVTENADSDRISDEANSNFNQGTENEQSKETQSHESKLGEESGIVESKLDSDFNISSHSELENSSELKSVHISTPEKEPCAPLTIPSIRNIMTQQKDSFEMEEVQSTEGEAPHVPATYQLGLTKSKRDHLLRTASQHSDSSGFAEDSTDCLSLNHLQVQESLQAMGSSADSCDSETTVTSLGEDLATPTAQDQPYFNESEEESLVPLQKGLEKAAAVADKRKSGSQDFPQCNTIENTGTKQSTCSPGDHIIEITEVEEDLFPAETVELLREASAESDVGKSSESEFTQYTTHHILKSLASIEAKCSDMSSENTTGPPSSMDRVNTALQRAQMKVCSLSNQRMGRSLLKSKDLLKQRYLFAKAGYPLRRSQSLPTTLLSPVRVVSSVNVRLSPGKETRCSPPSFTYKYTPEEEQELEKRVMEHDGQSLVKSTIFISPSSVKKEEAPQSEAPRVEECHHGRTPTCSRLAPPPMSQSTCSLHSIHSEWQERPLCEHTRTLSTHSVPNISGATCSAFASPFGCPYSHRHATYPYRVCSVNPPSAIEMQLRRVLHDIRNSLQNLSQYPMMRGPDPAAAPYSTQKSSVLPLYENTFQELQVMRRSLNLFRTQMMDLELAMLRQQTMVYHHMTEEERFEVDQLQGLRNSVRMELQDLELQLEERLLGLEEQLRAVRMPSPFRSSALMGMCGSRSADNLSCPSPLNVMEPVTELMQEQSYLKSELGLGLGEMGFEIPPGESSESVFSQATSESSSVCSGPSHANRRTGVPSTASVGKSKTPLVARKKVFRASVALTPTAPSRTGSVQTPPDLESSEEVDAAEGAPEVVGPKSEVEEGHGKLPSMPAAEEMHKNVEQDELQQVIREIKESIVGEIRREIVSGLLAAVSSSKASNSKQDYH

How the values were obtained:
[1] = biological target: sperm specific antigen 2 (SSFA2), endogenous in human testes (human (endogenous in human testes)) (UniProt P28290); assay: co-IP; endogenous proteins of human testes, lysed in RIPA buffer, antibody overnight at 4 °C, Protein A/G magnetic beads, immunoblot
Flag-WT-SSFA2 (human) = Flag-WT-SSFA2 (human) (UniProt P28290); assay: co-IP; HEK293T cotransfected with Myc-WT-GSTM3 and Flag-WT-SSFA2 plasmids, RIPA lysate, Protein A/G magnetic beads, immunoblot (anti-Flag, anti-Myc)

- binding [1]: binds
B1: GSTM3, endogenous in human testes (protein, UniProt P21266 1-225)
chain: MSCESSMVLGYWDIRGLAHAIRLLLEFTDTSYEEKRYTCGEAPDYDRSQWLDVKFKLDLDFPNLPYLLDGKNKITQSNAILRYIARKHNMCGETEEEKIRVDIIENQVMDFRTQLIRLCYSSDHEKLKPQYLEELPGQLKQFSMFLGKFSWFAGEKLTFVDFLTYDILDQNRIFDPKCLDEFPNLKAFMCRFEALEKIAAYLQSDQFCKMPINNKMAQWGNKPVC

- binding (Flag-WT-SSFA2 (human)): binds
B2: Myc-WT-GSTM3 (protein, UniProt P21266 1-225)
chain: B1 chain
